PubChem BioAssay AID2685 (National Center for Advancing Translational Sciences (NCATS), 2010)
Among all 320,000 compounds or so, about 2,100 (0.66%) were called active. Inconclusive means that the source gave no clear call. Such entries were picked first, then a sample of the others. Calls come from the whole dose curve; as a rule, active = well fitted inhibition curve with a large enough effect in the signal ratio, with a control signal flat (not every such curve was filed as active); inconclusive = small, poorly fitted or top-dose-only effect, or effect the other way, or a change in a side signal; inactive = flat fitted curve, though single readings scatter; the % refers to the signal ratio. A potency beside an inconclusive call is a rough fit, not a confirmed value.

Assay: qHTS Assay for Lipid Storage Modulators in Drosophila S3 Cells
Conditions: BODIPY lipid droplet fluorescence, 18-24 h, cells fed with added oleic acid; lipid storage change, negative = inhibition: at 46.1 µM (top of the series) unless noted
Method in brief: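 Laser-scanning cytometry quantifies lipid droplet accumulation (500–530 nm total intensity; droplet/cell object ratio) in oleic acid-fed (400 uM added) Drosophila S3 cells treated with a concentration series. 20 uM Triacsin C defined 100% inhibition.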
% is set by controls: 0 for no effect and ±100 for the full control effect; potency is the fitted concentration of half-maximal effect.

| SMILES | lipid storage change, negative = inhibition | Potency |
| --- | --- | --- |
| Cc1ccc2nc(SCC(=O)N3CCN(c4ccccc4)CC3)nc(=O)n2c1 | inconclusive: 9.18% | – |
| COc1cc(/C=C(\C#N)C(=O)Nc2ccc(SC(F)F)cc2)cc(OC)c1OC | inconclusive: 87% | – |
| O=C(NC1CCCCCC1)c1ccc(CS(=O)(=O)Cc2ccccc2F)o1 | inconclusive: -19.3% | – |
| CCCc1nn2c(=O)cc(COc3ccc(NC(=O)c4ccco4)cc3)nc2s1 | – | inconclusive: 25.9 µM [activator, partial curve, poor fit] |
| CCN(CC)CCN(C(=O)c1ccc2c(c1)OCCO2)c1nc2cc3c(cc2s1)OCO3 | inconclusive: 10.2% | – |
| CCc1ccccc1N(C)S(=O)(=O)c1ccc2[nH]cc(C(=O)N3CCc4ccccc43)c(=O)c2c1 | inconclusive: 2.52% | – |
| O=C(NC1CC(=O)N(c2ccc3c(c2)OCCO3)C1)N1CCCCC1 (configuration not stated) | inconclusive: -58.4% [at 0.0737 µM] | – |
| CCOc1cc(C2NC(=O)N(C)C(C)=C2[N+](=O)[O-])ccc1OC(C)=O (configuration not stated) | inconclusive: -39.2% | – |
| COc1cccc(NC(=O)CN(C)C(=O)CCCc2nc3ccccc3c(=O)[nH]2)c1 | inconclusive: 10.9% | – |
| O=C(c1ccc(N2CCN(C(=O)c3ccc(F)cc3F)CC2)cc1)c1cccc(F)c1 | – | inconclusive: 29.1 µM [falling, single point] |
| CSc1ccccc1NC(=O)c1cc2ncc(Br)cn2n1 | inconclusive: 13.1% | – |
| COc1ccc(CN(C)C(=O)c2ccc(NC(=O)CC3SC(N4CCCC4)=NC3=O)cc2)c(OC)c1 (configuration not stated) | inconclusive | – |
| Cc1nnc(NC(=O)CSc2nc(N)c(NC(=O)c3cccs3)c(=O)[nH]2)s1 | – | inconclusive: 0.0517 µM [falling, full curve, poor fit] |
| CCc1ccccc1N(C)S(=O)(=O)c1ccc(-c2cc(C)no2)s1 | – | inconclusive: 29.1 µM [falling, single point] |
| CCS(=O)(=O)N1CCC(C(=O)NCc2ccc(F)cc2Cl)CC1 | inconclusive: 9.69% | – |
| CCc1nc(C#N)c(N2CCOCC2)o1 | inconclusive: -19.2% | – |
| Cc1ccc(NC(=O)Cn2nnc(-c3ccccc3NC(=O)c3cccs3)n2)cc1 | inconclusive: 188% | – |
| Cc1ccccc1NC(=O)CSc1nnc(-c2ccccn2)o1 | inconclusive: -40.9% | – |
| Cc1ccccc1CNC(=O)Cn1cnc(S(=O)(=O)N2CCCC2)c1 | – | inconclusive: 0.411 µM [falling, partial curve, poor fit] |
| CCc1ccc(C(=O)CN2C(=O)NC3(CCc4ccccc43)C2=O)cc1 (configuration not stated) | inconclusive: 5.26% | – |
| O=C(CSCc1ccccc1)Nc1ccc(F)c(F)c1 | inconclusive: -17.5% | – |
| O=C(CN1CCN(C(=O)c2ccco2)CC1)Nc1ccc2c(c1)OCCO2 | inconclusive: 14.9% | – |
| O=c1cc2[nH]c3ccccc3c(=O)n2nc1-c1ccccc1 | – | inconclusive: 0.0731 µM [falling, single point] |
| CCOCC(O)CS(=O)Cc1ccccc1 (configuration not stated) | – | inconclusive: 0.058 µM [falling, full curve, poor fit] |
| COc1ccc(C=O)cc1Oc1nc(Cl)ncc1F | inactive | – |
| COc1ccc(CNc2nc(C)cc(C)c2C#N)cc1 | – | inconclusive: 20.6 µM [activator, single point] |

Ordered by count of non-hydrogen atoms (ascending): part of the list above

| SMILES | lipid storage change, negative = inhibition | Potency |
| --- | --- | --- |
| CCc1ccc(C(=O)CN2C(=O)NC3(CCc4ccccc43)C2=O)cc1 (configuration not stated) | inconclusive: 5.26% | – |
| O=C(CN1CCN(C(=O)c2ccco2)CC1)Nc1ccc2c(c1)OCCO2 | inconclusive: 14.9% | – |
| CCN(CC)CCN(C(=O)c1ccc2c(c1)OCCO2)c1nc2cc3c(cc2s1)OCO3 | inconclusive: 10.2% | – |

(more compounds)

| SMILES | lipid storage change, negative = inhibition | Potency |
| --- | --- | --- |
| Cn1c(=NC(=O)C2CC2)sc2cc(F)cc(F)c21 | inconclusive: 65.6% | – |
| CCCc1[nH]n(-c2ccc([N+](=O)[O-])cc2)c(=O)c1C=NCCc1ccc(OC)c(OC)c1 | – | inconclusive: 16.4 µM [activator, single point] |
| Cc1ccc2oc(=O)c3cc(C(=O)NCCCN4CCCC(C)C4)sc3c2c1 (configuration not stated) | – | inconclusive: 29.1 µM [activator, single point] |
| CCC(C)[C@H]1CNCCN1CCC12CC3CC(CC(C3)C1)C2 (some centres not stated) | inconclusive: 8.99% | – |
| CCOC(=O)c1sc(NC(=O)c2ccco2)c(C#N)c1C | inconclusive: -5.59% | – |
| CCC(=O)c1ccc(CCCCCC(=O)O)s1 | – | inconclusive: 6.51 µM [falling, single point] |
| COc1ccccc1NC(=S)NC(=O)CCCOc1ccc(Cl)cc1Cl | inconclusive: -37.4% | – |
| COc1ccc(COC(=O)c2cc(S(=O)(=O)N3CCCCC3)ccc2N2CCOCC2)cc1 | – | inconclusive: 2.91 µM [activator, single point] |
| Cc1ccc(-n2c(C)cc(C(=O)CN3CCOCC3)c2C)cc1 | – | inconclusive: 2.06 µM [activator, single point] |
| O=C(CSc1nnnn1-c1ccccc1Cl)Nc1ccc2c(c1)OCCO2 | inconclusive: 47.9% | – |
| CC(=O)c1cccc(N(CC(=O)Nc2ccccc2F)S(C)(=O)=O)c1 | inconclusive: 45.8% | – |
| O=C1CCCc2nc(NCc3ccco3)ncc21 | inconclusive: 10.7% | – |
| CCOc1ccc(-n2c(SCC(=O)NC(C)CC)nc3n[nH]c(C)c3c2=N)cc1 (configuration not stated) | inconclusive: -58.7% | – |
| CCOc1ccc(N(C(C)C(=O)N2CCCCCC2)S(C)(=O)=O)cc1 (configuration not stated) | – | inconclusive: 29.1 µM [falling, single point] |
| O=[N+]([O-])c1cc2c(cc1CN1CCN(c3ccccc3)CC1)OCO2 | – | inconclusive: 29.1 µM [falling, single point] |
| Cn1c(N)c(C(=O)COC(=O)CSc2ccc3ccccc3c2)c(=O)n(C)c1=O | inconclusive: 23.3% | – |
| C=CCn1c(SCC(=O)c2cccs2)nc2sc(CC)cc2c1=O | inconclusive: 30.9% | – |
| O=C(Nc1sccc1C(=O)N1CCOCC1)c1cccnc1 | inconclusive: 28.8% | – |
| Cc1nn2c(NCCN3CCOCC3)c3c(nc2c1-c1ccccc1)CCCC3 | – | inconclusive: 29.1 µM [falling, single point] |
| C/C(=N\NC(=O)CSCc1ccc([N+](=O)[O-])cc1)c1cccc(Br)c1 | – | inconclusive: 14.6 µM [rising, partial curve] |
| Cc1ccc(/C=N/NC(=O)c2cccs2)cc1[N+](=O)[O-] | inconclusive: -26.1% | – |
| Cc1nonc1NC(=O)CSc1nc2ccc(Cl)cc2[nH]1 | inconclusive: 147% | – |
| CCN(CC(=O)Nc1ccc(C)c(F)c1)CC(=O)NC(C)C | inconclusive: -3.42% | – |
| O=C(NCCN1CCOCC1)c1ccccc1Cl | inconclusive: 59.5% | – |
| O=C(CCc1nc(-c2ccccc2F)no1)NC1CCCCCC1 | – | inconclusive: 0.461 µM [activator, partial curve, poor fit] |
| Cc1ccccc1-n1c(SCC(=O)N/N=C/c2c(C)nn(-c3ccccc3)c2C)nc2ccccc2c1=O | inconclusive: 17.6% | – |

| SMILES | lipid storage change, negative = inhibition | Potency |
| --- | --- | --- |
| CC(C)OC(=O)CSc1nnc(Cc2ccccc2)n1CC1CCCO1 (configuration not stated) | inconclusive: 13.4% | – |
| COC(=O)[C@@H]1C2CCC(C(=O)Nc3ccccc3)(CC2)[C@@H]1C(=O)OC | inactive | – |
| Cn1c(=O)[nH]c(=O)c2c1nc(Br)n2Cc1ccccc1Cl | – | inconclusive: 23.1 µM [activator, single point] |
| O=C(CN(Cc1ccccc1)S(=O)(=O)c1ccc(Cl)cc1)NCC1CCCO1 (configuration not stated) | inconclusive: 42.6% | – |
| COc1ccccc1NS(=O)(=O)c1ccc(C(N)=O)cc1 | inconclusive: 9.91% | – |
| O=C(CSc1nnnn1-c1cccnc1)Nc1ccccc1F | – | inconclusive: 5.8 µM [activator, full curve] |
| COc1cc2c(cc1OC)CN(C(=O)c1ccco1)CC2 | inconclusive: 8.42% | – |
| CCOC(=O)c1cnc(-n2nc(C)cc2C)nc1Nc1cccc(C(=O)O)c1 | inconclusive: -7% | – |
| Cc1cc(C(=O)CSc2nnnn2-c2ccccc2)c(C)n1-c1ccc2c(c1)OCO2 | inconclusive: 174% | – |
| CCN(CC)CCCn1c2c(c(SCC(=O)Nc3cccc(C(C)=O)c3)nc1=O)CCC2 | inconclusive: 35.7% | – |
| O=S1(=O)CC(O)C(NCc2ccco2)C1 (configuration not stated) | inconclusive: -126% | – |
| COc1ccc(NC(=O)COC(=O)c2cc(Cl)ccc2O)cc1S(=O)(=O)N1CCCCC1 | – | inconclusive: 0.0651 µM [activator, full curve, poor fit] |
| Cc1ccc(C(C(=O)NC2CCCCC2)N(C(=O)c2csnn2)C2CC2)cc1 (configuration not stated) | inconclusive: 40.5% | – |
| O=C(Nc1cc(Oc2ccccc2)cc([N+](=O)[O-])c1)C12CC3CC(C1)CC(n1cnc(Cl)n1)(C3)C2 | – | inconclusive: 9.2 µM [falling, partial curve, poor fit] |
| CCN(CC)C(=O)CSc1nnc(-c2ccccc2)n1-c1ccccc1 | inconclusive: 14.5% | – |
| CCCC(=O)Nc1cccc(C(=O)Nc2ccccc2OCC)c1 | inconclusive: -51.5% | – |
| CCCCN(CC)Cc1c(C)[nH]c2c(ccc3ccccc32)c1=O | inconclusive: -7.92% | – |
| C#Cc1cccc(-n2nnc(C(C)=O)c2C)c1 | inconclusive: -19.8% | – |
| O=C(NCC1CCCO1)/C(=C\c1ccc(Cl)cc1)NC(=O)c1ccccc1 (configuration not stated) | inconclusive: -16% | – |
| CC(O)C(NS(=O)(=O)c1ccc(Cl)cc1)C(=O)OCc1nnc(-c2ccccc2)o1 (configuration not stated) | inconclusive: 29.6% | – |
| Cc1ccc(/C=C2/NC(=O)N(Cc3ccccc3)C2=O)o1 | inconclusive: 20.7% | – |
| COc1ccc(CCNC(=O)CCCn2c(=O)c3cccn3c3cccnc32)c(OC)c1 | – | active: 16.4 µM |
| Cc1cccc(N(CC(=O)NC2CCCCC2)C(=O)c2ccc(C)s2)c1 | inconclusive: -16.5% | – |
| CCS(=O)(=O)N1CCC(NC(=O)C(Cc2ccc(OC)c(OC)c2)NC(C)=O)CC1 (configuration not stated) | – | inconclusive: 0.731 µM [activator, full curve] |
| Cc1coc2c1c(C)cc1oc(=O)c(CC(=O)NCCCCCC(=O)O)c(C)c12 | inconclusive: 2.92% | – |

Laid out differently: results already given
Cc1nonc1NC(=O)CSc1nc2ccc(Cl)cc2[nH]1
  lipid storage change, negative = inhibition: inconclusive: 147%
CCN(CC(=O)Nc1ccc(C)c(F)c1)CC(=O)NC(C)C
  lipid storage change, negative = inhibition: inconclusive: -3.42%
O=C(NCCN1CCOCC1)c1ccccc1Cl
  lipid storage change, negative = inhibition: inconclusive: 59.5%
